Measurements as given in US8470587B2, “129Xe biosensors and their use” (The Trustees of the University of Pennsylvania, priority 2006, dated 2013).
These are yes or no findings as the source states them, for the method shown. Some entries that bind do so weakly or less than the wild type.

Target: T1, MMP-7 (recombinant, catalytic domain) (UniProt P09237)
T1 sequence (looked up): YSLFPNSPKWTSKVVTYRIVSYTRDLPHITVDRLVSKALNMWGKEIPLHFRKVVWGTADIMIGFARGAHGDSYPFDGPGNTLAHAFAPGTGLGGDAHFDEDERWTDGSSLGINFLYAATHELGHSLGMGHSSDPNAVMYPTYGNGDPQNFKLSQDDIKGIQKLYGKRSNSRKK
Test: Michaelis-Menten kinetics, HPLC assay

For RKRPLALWRSRK (N-terminal 3-azidopropionic acid (N3-CH2CH2-CO-)) [azidopeptide N3-CH2CH2-CONH2-…], the binding was “binds”.
